The supplement of paper PMC10849652
Some of the results follow.

The chains behind the UniProt entries cited, without tags or fusion partners. Where a name states a change or a piece, a line headed by the entry shows the natural chain unless it says otherwise.
UniProt Q9BRP1: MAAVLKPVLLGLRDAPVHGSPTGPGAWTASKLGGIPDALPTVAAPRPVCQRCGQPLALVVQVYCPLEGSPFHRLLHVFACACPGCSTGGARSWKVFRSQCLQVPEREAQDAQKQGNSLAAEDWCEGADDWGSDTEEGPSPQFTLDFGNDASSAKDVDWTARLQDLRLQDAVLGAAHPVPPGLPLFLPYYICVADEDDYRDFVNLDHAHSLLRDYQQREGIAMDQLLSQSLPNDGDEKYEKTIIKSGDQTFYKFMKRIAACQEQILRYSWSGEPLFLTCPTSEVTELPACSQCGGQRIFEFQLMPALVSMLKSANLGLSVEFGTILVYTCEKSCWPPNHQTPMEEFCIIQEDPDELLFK
UniProt O94913, whole entry, looked up: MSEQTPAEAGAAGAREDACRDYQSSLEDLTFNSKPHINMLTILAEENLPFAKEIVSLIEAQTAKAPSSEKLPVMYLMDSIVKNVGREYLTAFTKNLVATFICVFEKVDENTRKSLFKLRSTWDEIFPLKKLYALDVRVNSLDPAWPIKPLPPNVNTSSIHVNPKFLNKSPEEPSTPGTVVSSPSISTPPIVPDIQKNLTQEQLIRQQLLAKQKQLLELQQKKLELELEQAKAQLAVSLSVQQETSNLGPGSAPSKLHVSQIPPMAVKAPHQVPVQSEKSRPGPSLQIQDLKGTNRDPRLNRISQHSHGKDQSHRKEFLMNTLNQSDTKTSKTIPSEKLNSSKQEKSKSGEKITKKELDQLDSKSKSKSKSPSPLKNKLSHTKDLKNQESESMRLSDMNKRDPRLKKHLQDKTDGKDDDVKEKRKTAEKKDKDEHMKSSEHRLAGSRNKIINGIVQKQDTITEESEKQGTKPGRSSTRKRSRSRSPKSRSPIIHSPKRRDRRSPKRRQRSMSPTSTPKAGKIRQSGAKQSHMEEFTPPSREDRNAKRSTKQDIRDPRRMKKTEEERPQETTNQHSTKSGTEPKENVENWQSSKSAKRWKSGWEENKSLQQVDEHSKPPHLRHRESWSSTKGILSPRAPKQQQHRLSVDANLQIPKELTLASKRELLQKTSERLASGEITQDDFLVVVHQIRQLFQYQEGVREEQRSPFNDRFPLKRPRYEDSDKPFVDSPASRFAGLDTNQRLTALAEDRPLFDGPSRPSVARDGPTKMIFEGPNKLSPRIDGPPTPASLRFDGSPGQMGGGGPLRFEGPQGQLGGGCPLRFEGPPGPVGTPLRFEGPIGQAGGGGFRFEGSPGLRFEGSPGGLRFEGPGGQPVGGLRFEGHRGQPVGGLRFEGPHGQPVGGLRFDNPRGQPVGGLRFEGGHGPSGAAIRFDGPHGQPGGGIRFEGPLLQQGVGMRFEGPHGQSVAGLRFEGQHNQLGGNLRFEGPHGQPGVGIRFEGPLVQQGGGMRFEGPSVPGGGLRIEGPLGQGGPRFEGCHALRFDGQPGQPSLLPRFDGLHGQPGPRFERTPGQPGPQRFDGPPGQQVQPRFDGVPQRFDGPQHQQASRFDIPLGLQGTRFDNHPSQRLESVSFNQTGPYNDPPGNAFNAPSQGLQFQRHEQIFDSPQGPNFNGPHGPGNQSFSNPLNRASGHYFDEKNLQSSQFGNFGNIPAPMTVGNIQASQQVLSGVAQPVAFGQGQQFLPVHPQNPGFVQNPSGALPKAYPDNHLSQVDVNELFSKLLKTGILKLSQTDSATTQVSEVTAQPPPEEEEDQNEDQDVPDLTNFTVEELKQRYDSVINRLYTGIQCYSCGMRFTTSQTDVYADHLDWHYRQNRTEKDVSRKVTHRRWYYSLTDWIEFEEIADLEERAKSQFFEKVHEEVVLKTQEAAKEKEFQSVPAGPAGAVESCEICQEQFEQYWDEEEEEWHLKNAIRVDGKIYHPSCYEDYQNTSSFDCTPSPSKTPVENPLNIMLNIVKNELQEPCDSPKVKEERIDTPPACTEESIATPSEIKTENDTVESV
UniProt Q15084: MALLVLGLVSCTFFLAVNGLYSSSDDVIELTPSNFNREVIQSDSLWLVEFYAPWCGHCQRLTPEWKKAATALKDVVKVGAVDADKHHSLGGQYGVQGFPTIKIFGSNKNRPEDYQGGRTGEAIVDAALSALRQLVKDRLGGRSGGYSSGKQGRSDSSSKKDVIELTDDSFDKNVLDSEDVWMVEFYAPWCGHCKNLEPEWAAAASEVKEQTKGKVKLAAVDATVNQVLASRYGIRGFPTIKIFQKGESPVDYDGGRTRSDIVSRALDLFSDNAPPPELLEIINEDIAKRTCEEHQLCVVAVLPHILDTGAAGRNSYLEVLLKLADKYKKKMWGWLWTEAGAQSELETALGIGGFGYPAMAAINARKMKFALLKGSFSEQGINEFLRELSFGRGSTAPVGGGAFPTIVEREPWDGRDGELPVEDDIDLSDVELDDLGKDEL
UniProt P18669: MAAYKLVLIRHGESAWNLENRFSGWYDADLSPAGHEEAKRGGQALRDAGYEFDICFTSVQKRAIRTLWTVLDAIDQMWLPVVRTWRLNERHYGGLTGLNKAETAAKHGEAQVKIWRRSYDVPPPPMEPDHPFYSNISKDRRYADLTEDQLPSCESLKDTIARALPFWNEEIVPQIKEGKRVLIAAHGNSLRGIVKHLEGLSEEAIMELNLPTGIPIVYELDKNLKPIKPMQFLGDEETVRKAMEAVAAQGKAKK
UniProt H7BZJ3: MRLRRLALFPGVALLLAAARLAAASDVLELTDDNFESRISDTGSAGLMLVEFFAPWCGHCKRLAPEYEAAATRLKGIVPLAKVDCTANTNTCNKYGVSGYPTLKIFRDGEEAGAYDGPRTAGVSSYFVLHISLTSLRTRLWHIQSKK
UniProt Q9H2J4: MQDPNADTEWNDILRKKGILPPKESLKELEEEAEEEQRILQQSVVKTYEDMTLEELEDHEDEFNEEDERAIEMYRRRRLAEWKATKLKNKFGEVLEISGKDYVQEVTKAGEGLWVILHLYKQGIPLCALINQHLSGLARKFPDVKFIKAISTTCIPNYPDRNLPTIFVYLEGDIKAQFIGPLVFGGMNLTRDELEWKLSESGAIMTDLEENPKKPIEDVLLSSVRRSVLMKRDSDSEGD
UniProt Q9Y5B6: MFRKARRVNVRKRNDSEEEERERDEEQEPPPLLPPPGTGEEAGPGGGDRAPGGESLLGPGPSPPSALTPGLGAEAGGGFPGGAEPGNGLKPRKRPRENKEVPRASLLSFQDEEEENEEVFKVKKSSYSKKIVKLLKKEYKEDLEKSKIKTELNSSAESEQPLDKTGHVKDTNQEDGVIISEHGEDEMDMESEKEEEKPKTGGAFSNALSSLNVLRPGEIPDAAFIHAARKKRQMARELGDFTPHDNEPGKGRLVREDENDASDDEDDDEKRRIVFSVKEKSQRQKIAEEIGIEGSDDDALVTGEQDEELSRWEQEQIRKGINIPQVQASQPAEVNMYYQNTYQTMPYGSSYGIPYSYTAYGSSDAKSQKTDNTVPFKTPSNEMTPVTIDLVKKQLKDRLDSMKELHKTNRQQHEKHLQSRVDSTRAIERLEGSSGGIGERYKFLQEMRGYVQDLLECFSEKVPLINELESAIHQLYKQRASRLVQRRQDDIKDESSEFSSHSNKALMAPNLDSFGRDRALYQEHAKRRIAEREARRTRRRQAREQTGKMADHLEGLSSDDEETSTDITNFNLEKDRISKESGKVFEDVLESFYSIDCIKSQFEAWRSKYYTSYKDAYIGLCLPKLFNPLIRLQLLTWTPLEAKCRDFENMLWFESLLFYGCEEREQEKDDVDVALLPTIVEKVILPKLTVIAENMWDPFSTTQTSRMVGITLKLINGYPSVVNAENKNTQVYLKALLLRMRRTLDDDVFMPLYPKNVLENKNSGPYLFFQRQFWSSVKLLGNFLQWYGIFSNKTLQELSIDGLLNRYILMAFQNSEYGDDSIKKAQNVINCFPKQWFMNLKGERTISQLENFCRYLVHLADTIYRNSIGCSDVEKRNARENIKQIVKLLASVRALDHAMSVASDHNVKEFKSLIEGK
UniProt Q29RF7: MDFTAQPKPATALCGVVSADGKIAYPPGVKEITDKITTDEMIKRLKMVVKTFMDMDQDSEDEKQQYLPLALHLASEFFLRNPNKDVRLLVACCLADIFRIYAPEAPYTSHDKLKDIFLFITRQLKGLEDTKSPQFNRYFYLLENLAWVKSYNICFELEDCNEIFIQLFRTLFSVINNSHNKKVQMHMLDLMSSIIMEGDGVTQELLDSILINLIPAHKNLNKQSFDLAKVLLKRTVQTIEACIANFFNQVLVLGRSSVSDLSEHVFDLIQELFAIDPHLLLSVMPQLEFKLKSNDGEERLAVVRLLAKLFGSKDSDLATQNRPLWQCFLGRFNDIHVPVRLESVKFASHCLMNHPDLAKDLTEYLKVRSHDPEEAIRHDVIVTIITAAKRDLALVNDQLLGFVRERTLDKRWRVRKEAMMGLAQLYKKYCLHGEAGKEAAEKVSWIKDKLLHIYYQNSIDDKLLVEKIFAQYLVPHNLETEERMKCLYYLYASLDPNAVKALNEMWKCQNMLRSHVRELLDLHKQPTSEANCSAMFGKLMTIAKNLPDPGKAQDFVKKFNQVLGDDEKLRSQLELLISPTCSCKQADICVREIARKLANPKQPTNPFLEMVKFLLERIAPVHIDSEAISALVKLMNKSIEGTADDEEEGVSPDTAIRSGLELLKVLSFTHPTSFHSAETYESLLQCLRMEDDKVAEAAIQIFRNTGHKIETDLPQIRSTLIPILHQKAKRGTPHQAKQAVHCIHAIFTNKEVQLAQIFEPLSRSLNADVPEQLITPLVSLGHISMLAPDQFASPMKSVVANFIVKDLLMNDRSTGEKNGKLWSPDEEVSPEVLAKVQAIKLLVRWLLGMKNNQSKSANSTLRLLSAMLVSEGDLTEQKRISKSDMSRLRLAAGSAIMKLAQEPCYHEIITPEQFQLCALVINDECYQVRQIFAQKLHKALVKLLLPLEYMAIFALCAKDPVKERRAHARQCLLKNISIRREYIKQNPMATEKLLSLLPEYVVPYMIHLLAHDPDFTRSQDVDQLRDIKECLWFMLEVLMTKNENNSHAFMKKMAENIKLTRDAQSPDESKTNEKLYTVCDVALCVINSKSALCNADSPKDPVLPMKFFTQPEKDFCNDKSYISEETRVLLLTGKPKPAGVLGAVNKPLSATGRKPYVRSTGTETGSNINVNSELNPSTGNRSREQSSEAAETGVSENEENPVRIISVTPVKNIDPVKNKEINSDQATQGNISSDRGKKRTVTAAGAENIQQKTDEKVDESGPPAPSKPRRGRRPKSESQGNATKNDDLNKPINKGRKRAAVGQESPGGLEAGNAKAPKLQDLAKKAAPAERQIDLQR
UniProt Q8NBP7, whole entry, looked up: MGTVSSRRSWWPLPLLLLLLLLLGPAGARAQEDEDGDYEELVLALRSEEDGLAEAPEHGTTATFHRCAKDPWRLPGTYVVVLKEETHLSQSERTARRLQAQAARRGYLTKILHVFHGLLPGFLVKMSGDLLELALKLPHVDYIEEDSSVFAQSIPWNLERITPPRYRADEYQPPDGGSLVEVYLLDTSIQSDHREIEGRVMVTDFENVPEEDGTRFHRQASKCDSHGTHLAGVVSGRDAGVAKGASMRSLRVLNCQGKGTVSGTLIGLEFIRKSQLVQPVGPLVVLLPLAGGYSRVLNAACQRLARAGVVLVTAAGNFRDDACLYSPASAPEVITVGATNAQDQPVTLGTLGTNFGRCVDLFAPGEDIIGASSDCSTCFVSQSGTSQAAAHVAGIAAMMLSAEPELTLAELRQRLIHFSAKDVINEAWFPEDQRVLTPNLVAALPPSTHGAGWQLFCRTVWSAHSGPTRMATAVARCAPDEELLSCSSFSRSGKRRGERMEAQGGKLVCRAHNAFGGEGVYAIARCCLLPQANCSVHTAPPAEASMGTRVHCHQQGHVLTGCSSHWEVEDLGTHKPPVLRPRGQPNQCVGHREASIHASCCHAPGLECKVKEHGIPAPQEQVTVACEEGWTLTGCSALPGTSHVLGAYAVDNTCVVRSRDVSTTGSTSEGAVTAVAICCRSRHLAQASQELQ
UniProt Q13442: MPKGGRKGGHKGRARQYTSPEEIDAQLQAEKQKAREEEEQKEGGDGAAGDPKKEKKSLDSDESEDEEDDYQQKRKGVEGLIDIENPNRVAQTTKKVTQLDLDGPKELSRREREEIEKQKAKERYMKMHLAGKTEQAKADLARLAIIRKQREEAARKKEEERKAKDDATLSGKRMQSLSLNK
UniProt O96011: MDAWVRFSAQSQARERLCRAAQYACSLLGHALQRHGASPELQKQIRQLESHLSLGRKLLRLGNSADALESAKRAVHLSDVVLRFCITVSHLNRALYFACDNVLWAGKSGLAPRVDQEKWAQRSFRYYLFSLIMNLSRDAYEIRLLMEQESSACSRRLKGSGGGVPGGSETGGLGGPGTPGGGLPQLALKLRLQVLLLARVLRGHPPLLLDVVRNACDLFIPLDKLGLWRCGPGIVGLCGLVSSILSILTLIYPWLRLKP
UniProt Q9BUH6, whole entry, looked up: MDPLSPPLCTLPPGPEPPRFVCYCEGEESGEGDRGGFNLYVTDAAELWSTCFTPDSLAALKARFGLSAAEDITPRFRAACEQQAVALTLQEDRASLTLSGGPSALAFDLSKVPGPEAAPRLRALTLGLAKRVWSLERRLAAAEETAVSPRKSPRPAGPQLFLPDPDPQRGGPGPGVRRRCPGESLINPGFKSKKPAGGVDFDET

How the values were obtained:
Assay in all cases: log2 fold change, soluble protein after heating vs DMSO (PISA); higher = thermal stabilisation; K562 lysate, 10 uM; active = over 0.2 and 3.5 SD of the protein, either way, in both replicates (recomputed)
erlotinib = compound: C#Cc1cccc(Nc2ncnc3cc(OCCOC)c(OCCOC)cc23)c1 [erlotinib]
Outline: (§1)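 Pellets of K562 cells were dounce-homogenised in PBS pH 7.4 with 1 mM MgCl2, and the crude extract was held at 1 mg/mL protein for a 30 min treatment with 10 μM compound. Aliquots were heated for 3 min over 48°C-58°C and pooled before NP-40 was added to 0.5% at 4°C. The supernatant from 21,000xg for 90 min was quantified by TMTpro 16plex LC-MS/MS with channel sums equalised. Values are reported from duplicates as log-two fold change in thermal stability relative to solvent controls.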

[1] = compound: C/C(=N\NC(=O)C1=CC(=CC=C1)S(=O)(=O)N2CCOCC2)/C3=C(C=CC(=C3)Cl)O
Outline: as §1

[2] = compound: C1=CC(=CC=C1C2=NC3=C(N2)C=C(C=C3)C(=O)N)OC4=CC=C(C=C4)Cl
Outline: as §1

[3] = compound: C1=CC2=C(C=CC(=C2)/C=C\3/C(=O)NC(=NCC4=CC=CS4)S3)N=C1
Outline: as §1

[4] = compound: C1=CC2=NC=CN=C2C=C1/C=C/3\C(=O)NC(=O)S3
Outline: as §1

[5] = compound: C1=CC=C(C=C1)C2=NC(=C(N2)C3=CC=NC=C3)C4=CC(=C(C=C4)Cl)O
Outline: as §1

[6] = compound: C1=CC=C2C(=C1)C3=NNC4=CC=CC(=C43)C2=O
Outline: as §1

[7] = compound: C1CCN(C1)C(=O)NC2=CC=CC(=C2)NC3=NC=C(C(=N3)NCCC4=CN=CN4)Br
Outline: as §1

[8] = compound: C1CN(CCC1(CC2=CC=C(C=C2)Cl)N)C3=NC=NC4=C3C=CN4
Outline: as §1

IRAK-1-4 Inhibitor I = compound: C1COCCN1CCN2C3=CC=CC=C3N=C2NC(=O)C4=CC(=CC=C4)[N+](=O)[O-] [IRAK-1-4 Inhibitor I]
Outline: as §1

Measured: log2 fold change

PCBP2 (UniProt H3BRU6)
inactive: erlotinib 0.094 | [1] -0.272 | [2] 0.166 | [3] 0.061 | [4] -0.057 | [5] -0.034 | [6] -0.15 | [7] -0.196 | [8] -0.096 | IRAK-1-4 Inhibitor I 0.009

PDPK1 (UniProt O15530)
inactive: erlotinib -0.066 | [1] -0.007 | [2] -0.081 | [3] -0.047 | [4] -0.055 | [5] 0.005 | [6] 0.298 | [8] 0.019 | IRAK-1-4 Inhibitor I 0.018
active: [7] 0.552

PDCD2L (UniProt Q9BRP1)
inactive: erlotinib 0.078 | [1] -0.065 | [2] 0.001 | [3] 0.023 | [4] 0.022 | [5] 0.035 | [6] -0.058 | [7] -0.038 | [8] 0.005 | IRAK-1-4 Inhibitor I -0.005

PCF11 (UniProt O94913)
inactive: erlotinib 0.031 | [1] -0.063 | [2] 0.014 | [3] 0.008 | [4] -0.044 | [5] -0.025 | [6] -0.028 | [7] 0.005 | [8] 0.005 | IRAK-1-4 Inhibitor I -0.017

PDCD2 (UniProt Q16342)
inactive: erlotinib 0.056 | [1] -0.009 | [2] -0.011 | [3] 0 | [4] -0.034 | [5] -0.014 | [6] -0.03 | [7] -0.06 | [8] -0.007 | IRAK-1-4 Inhibitor I -0.026

PCYOX1L (UniProt Q8NBM8)
inactive: erlotinib -0.07 | [1] -0.022 | [2] -0.027 | [3] -0.076 | [4] 0.003 | [5] 0.009 | [6] -0.081 | [7] 0.019 | [8] -0.022 | IRAK-1-4 Inhibitor I 0.014

PDIA6 isoform 2 (UniProt Q15084)
inactive: erlotinib -0.025 | [1] -0.01 | [2] 0.026 | [3] -0.012 | [4] -0.008 | [5] 0.01 | [6] -0.015 | [7] -0.009 | [8] -0.005 | IRAK-1-4 Inhibitor I 0.002

PGAM1 (UniProt P18669)
inactive: erlotinib -0.014 | [1] 0.017 | [2] 0.015 | [3] 0.002 | [4] -0.003 | [5] 0.03 | [6] 0.001 | [7] 0.021 | [8] 0.018 | IRAK-1-4 Inhibitor I 0.015

PCNP (UniProt Q8WW12)
inactive: erlotinib 0.005 | [1] 0.053 | [2] 0.035 | [3] 0.003 | [4] -0.011 | [5] -0.001 | [6] 0.041 | [7] -0.006 | [8] 0.004 | IRAK-1-4 Inhibitor I 0.002

PFDN2 (UniProt Q9UHV9)
inactive: erlotinib -0.055 | [1] -0.003 | [2] -0.038 | [3] 0.006 | [4] 0 | [5] -0.027 | [6] 0.071 | [7] 0.043 | [8] -0.026 | IRAK-1-4 Inhibitor I -0.015

PARP2 (UniProt Q9UGN5)
inactive: erlotinib 0.06 | [1] -0.177 | [2] -0.063 | [3] 0.039 | [4] -0.037 | [5] 0.165 | [6] 0.047 | [7] -0.096 | [8] -0.145 | IRAK-1-4 Inhibitor I -0.114

PDHB (UniProt P11177)
inactive: erlotinib 0.032 | [1] 0.063 | [2] 0.027 | [3] -0.012 | [4] -0.002 | [5] -0.004 | [6] -0.009 | [7] -0.018 | [8] 0.011 | IRAK-1-4 Inhibitor I 0.007

PARVB (UniProt Q9HBI1)
inactive: erlotinib 0.043 | [1] -0.057 | [2] -0.009 | [3] 0.013 | [4] -0.012 | [5] 0.005 | [6] -0.018 | [7] 0.018 | [8] 0.031 | IRAK-1-4 Inhibitor I 0.017

PFDN5 (UniProt Q99471)
inactive: erlotinib 0.039 | [1] 0.054 | [2] -0.035 | [3] 0.022 | [4] -0.033 | [5] 0.036 | [6] -0.024 | [7] 0.091 | [8] 0.173 | IRAK-1-4 Inhibitor I 0.007

PDIA3 (UniProt H7BZJ3)
inactive: erlotinib -0.013 | [1] -0.025 | [2] -0.092 | [3] -0.094 | [4] -0.032 | [5] 0.004 | [6] -0.115 | [7] 0.015 | [8] 0.082 | IRAK-1-4 Inhibitor I 0.211

PDCL3 (UniProt Q9H2J4)
inactive: erlotinib 0.008 | [1] -0.042 | [2] 0.006 | [3] -0.024 | [4] -0.01 | [5] 0.015 | [6] -0.014 | [7] -0.027 | [8] 0.008 | IRAK-1-4 Inhibitor I 0.021

PAXBP1 (UniProt Q9Y5B6)
inactive: erlotinib 0.019 | [1] -0.035 | [2] 0.025 | [3] -0.01 | [4] 0.018 | [5] 0.026 | [6] -0.04 | [7] -0.022 | [8] 0.029 | IRAK-1-4 Inhibitor I 0.013

PDS5A (UniProt Q29RF7)
inactive: erlotinib 0.043 | [1] -0.015 | [2] -0.029 | [3] 0.052 | [4] 0.032 | [5] 0.012 | [6] -0.038 | [7] -0.005 | [8] 0.001 | IRAK-1-4 Inhibitor I -0.015

PCSK9 (UniProt Q8NBP7)
inactive: erlotinib 0.027 | [1] 0.167 | [2] -0.006 | [3] -0.104 | [4] -0.09 | [5] -0.007 | [6] 0.014 | [7] 0.058 | [8] 0 | IRAK-1-4 Inhibitor I 0.075

PDS5B (UniProt Q9NTI5)
inactive: erlotinib 0.031 | [1] 0.014 | [2] -0.019 | [3] 0.049 | [4] 0.001 | [5] 0.016 | [6] -0.005 | [7] 0.011 | [8] -0.018 | IRAK-1-4 Inhibitor I -0.034

PDAP1 (UniProt Q13442)
inactive: erlotinib -0.01 | [1] -0.022 | [2] 0.02 | [3] -0.005 | [4] 0.001 | [5] -0.007 | [6] 0.023 | [7] 0.016 | [8] -0.012 | IRAK-1-4 Inhibitor I 0.026

PEF1 (UniProt Q9UBV8)
inactive: erlotinib -0.01 | [1] 0.012 | [2] -0.014 | [3] -0.001 | [4] -0.039 | [5] -0.012 | [6] -0.021 | [7] -0.016 | [8] 0.056 | IRAK-1-4 Inhibitor I 0.025

PCM1 (UniProt Q15154)
inactive: erlotinib -0.021 | [1] -0.045 | [2] 0.024 | [3] 0.022 | [4] 0.004 | [5] 0.003 | [6] 0.005 | [7] 0.029 | [8] -0.015 | IRAK-1-4 Inhibitor I 0.031

PEX11B (UniProt O96011)
inactive: erlotinib -0.022 | [1] 0.06 | [2] 0.015 | [3] 0.011 | [4] -0.039 | [5] -0.017 | [6] -0.02 | [7] 0.002 | [8] 0.026 | IRAK-1-4 Inhibitor I 0.038

Taken from the results shown (two entries):
PGAM1 (UniProt P18669)
inactive: erlotinib -0.014 | [1] 0.017 | [2] 0.015 | [3] 0.002 | [4] -0.003 | [5] 0.03 | [6] 0.001 | [7] 0.021 | [8] 0.018 | IRAK-1-4 Inhibitor I 0.015

PCNP (UniProt Q8WW12)
inactive: erlotinib 0.005 | [1] 0.053 | [2] 0.035 | [3] 0.003 | [4] -0.011 | [5] -0.001 | [6] 0.041 | [7] -0.006 | [8] 0.004 | IRAK-1-4 Inhibitor I 0.002

Going on with the list:

PAXX (UniProt Q9BUH6)
inactive: erlotinib -0.01 | [1] 0.05 | [2] 0.029 | [3] -0.001 | [4] 0.026 | [5] 0.034 | [6] 0.061 | [7] 0.004 | [8] -0.029 | IRAK-1-4 Inhibitor I 0.007

PDIA5 (UniProt Q14554)
inactive: erlotinib -0.04 | [1] -0.047 | [2] 0.031 | [3] 0.003 | [4] 0.001 | [5] -0.014 | [6] 0.005 | [7] 0.013 | [8] 0.042 | IRAK-1-4 Inhibitor I -0.005

PARP9 (UniProt Q8IXQ6)
inactive: erlotinib -0.059 | [1] -0.048 | [2] -0.022 | [3] -0.038 | [4] -0.165 | [5] -0.066 | [6] -0.181 | [7] 0.047 | [8] -0.018 | IRAK-1-4 Inhibitor I 0.073
